These results are taken from PMC6660601.

Amino acid sequences for entries named in this document (tags omitted).
UniProt O08586: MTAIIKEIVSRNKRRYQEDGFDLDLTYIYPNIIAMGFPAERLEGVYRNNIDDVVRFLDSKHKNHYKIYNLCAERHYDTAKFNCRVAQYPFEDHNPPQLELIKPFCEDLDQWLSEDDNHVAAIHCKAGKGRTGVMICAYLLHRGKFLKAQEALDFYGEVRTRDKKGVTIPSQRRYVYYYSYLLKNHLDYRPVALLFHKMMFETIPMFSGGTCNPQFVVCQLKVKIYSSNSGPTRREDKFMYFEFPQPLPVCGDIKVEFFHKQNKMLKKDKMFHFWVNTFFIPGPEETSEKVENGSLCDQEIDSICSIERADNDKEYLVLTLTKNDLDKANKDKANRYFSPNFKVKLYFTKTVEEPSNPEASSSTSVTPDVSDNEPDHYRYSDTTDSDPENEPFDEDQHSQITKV

Assay [1] concerns the target T1, Myosin 1b (MYO1B), endogenous in immortalized MEFs (mouse (endogenous in MEF)) (UniProt P46735).
T1 sequence: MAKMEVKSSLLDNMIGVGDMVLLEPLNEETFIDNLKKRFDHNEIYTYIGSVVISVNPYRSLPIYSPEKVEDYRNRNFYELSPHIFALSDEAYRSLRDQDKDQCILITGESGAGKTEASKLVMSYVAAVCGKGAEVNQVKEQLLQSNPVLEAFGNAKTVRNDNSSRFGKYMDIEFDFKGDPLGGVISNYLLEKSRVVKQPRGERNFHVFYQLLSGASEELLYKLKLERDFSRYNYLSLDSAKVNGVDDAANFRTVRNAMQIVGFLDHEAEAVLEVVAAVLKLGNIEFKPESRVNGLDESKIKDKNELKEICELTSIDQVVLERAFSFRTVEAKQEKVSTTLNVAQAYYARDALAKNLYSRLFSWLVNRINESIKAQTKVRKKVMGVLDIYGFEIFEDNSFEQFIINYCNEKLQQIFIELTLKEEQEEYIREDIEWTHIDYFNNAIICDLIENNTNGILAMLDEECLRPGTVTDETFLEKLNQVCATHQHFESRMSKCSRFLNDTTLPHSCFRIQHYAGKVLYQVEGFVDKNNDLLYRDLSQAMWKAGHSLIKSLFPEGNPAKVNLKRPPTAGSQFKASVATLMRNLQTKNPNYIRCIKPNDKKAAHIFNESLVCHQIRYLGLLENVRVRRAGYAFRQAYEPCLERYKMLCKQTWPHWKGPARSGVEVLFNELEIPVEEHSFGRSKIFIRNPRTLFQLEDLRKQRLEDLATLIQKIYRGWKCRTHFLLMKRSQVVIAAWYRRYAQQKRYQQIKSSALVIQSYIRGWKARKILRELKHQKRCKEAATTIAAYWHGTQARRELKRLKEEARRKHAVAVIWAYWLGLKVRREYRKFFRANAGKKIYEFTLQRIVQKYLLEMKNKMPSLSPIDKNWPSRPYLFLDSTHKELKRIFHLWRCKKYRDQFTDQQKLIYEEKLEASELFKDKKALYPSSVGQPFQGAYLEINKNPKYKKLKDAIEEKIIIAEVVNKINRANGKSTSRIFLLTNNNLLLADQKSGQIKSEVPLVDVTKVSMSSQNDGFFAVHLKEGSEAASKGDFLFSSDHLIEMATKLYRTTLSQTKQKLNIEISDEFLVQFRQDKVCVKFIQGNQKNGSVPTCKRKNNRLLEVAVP
As to the kind of experiment: co-IP; immunoprecipitation with anti-MYO1B antibody from whole-cell lysates of immortalized MEFs transduced with rAd/CMV-LacZ or rAd/CMV-MYO1B, 16 h serum starvation; blot for PTEN; normal IgG as negative control.

The target in assay [2] is T2, Overexpressed MYO1B (rAd/CMV-MYO1B) (UniProt P46735).
T2 sequence: T1 sequence
The assay is described as above.

Results are given in words; binding and its absence hold for the method and conditions named. Binding seen in cells or lysates may run through a third protein. Some results given as binding are weak or reduced against the parent protein; the word gives no strength.

For the substance “Phosphatase and tensin homolog (PTEN), endogenous in immortalized MEFs (from UniProt O08586 1-403)”, the binding result in assay [1] and in assay [2] was “binds” in each case.
